The supplement of paper PMC10735217
Where a name gives a salt, the structure may show the parent alone. The list shows a part of the results. This data set is noisy: repeats of one test often differ as much as different tests do.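 Human kidney-derived cells stably carry a construct in which eight TEAD-binding elements drive luciferase, measured by luminescence in a drug-repurposing library screen. A hit is any compound whose signal exceeds the plate mean by more than five robust Z scores.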

Tested on: HEK293A TEAD-LUC reporter
Assay: TEAD-luciferase reporter activity (YAP activation), robust Z score vs plate; higher = stronger YAP/TEAD activation
Conditions: 24 h

Row | Structure (SMILES) | TEAD-luciferase reporter activity (compound concentration: 200 nM) | TEAD-luciferase reporter activity (compound concentration: 2 uM) | TEAD-luciferase reporter activity (compound concentration: 10 uM)
1 | COc1cc(O)c(C(=O)Nc2nc(C(=O)NCCN(C(C)C)C(C)C)cs2)cc1OC [Acotiamide hydrochloride hydrate] | inactive: -1.56 | inactive: -1.03 | inactive: 0.0226
2 | CC(Cc1ccccc1)(NC(=O)CN)c1ccccc1 (racemic) [Acetamide, 2-amino-N-(1-methyl-1,2-diphenylethyl)-, (+/-)-] | inactive: 1.72 | – | inactive: 0.215
3 | O=C(O)C(=O)Cc1c[nH]c2ccccc12 | inactive: -0.529 | inactive: -0.739 | inactive: -0.794
4 | Nc1ncnc2c1ncn2[C@@H]1O[C@H](CO)C[C@@H]1F [Lodenosine] | inactive: -0.682 | inactive: -0.162 | inactive: 1.07
5 | CN(C)CCC=C1c2ccccc2C(C)(C)c2ccccc21 [Melitracen Hydrochloride] | inactive: -0.69 | inactive: -1.16 | inactive: 2.74
6 | COC(=O)N[C@H](C(=O)N1CCC[C@H]1c1ncc(-c2ccc(-c3ccc(-c4cnc([C@@H]5CCCN5C(=O)[C@@H](NC(=O)OC)C(C)C)[nH]4)cc3)cc2)[nH]1)C(C)C | inactive: -1.01 | – | inactive: 1.01
7 | COC(=O)N[C@H](C(=O)N1CCC[C@H]1c1ncc(-c2ccc(-c3ccc(-c4cnc([C@@H]5CCCN5C(=O)[C@@H](NC(=O)OC)C(C)C)[nH]4)cc3)cc2)[nH]1)C(C)C [daclatasvir] | – | inactive: -3.66 | –
8 | CN1CCN(c2c(F)cc3c(=O)c(C(=O)O)c4scc5n4c3c2OC5)CC1 | inactive: 0.124 | inactive: 0.112 | inactive: 0.00782
9 | COc1ccc2c(c1)c(CC(=O)OC1OC(=O)c3ccccc31)c(C)n2C(=O)c1ccc(Cl)cc1 (stereo not drawn) | inactive: 0.386 | inactive: -0.513 | inactive: -0.894
10 | CCC(=O)O[C@]1(C(=O)COC(C)=O)CC[C@H]2[C@@H]3CCC4=CC(=O)CC[C@]4(C)[C@H]3[C@@H](O)C[C@@]21C [Hydrocortisone aceponate] | inactive: 2.87 | inactive: 0.734 | inactive: 0.0501
11 | O=P(O)(O)C(O)(Cc1cnc2ccccn12)P(=O)(O)O [minodronic acid] | inactive: 0.384 | inactive: -1.2 | inactive: -0.309
12 | CCNC(=O)NC(=O)C(C)OC(=O)c1c2c(nc3ccccc13)/C(=C/c1ccc(OC)c(OC)c1)CC2 (stereo not drawn) | inactive: -1.42 | inactive: -0.374 | inactive: -1.36
13 | CC(C)(C)OC(=O)N[C@@H](Cc1ccccc1)[C@@H](O)CC(Cc1ccc(CCCO)cc1)C(=O)N[C@H]1c2ccccc2C[C@H]1O (stereo partly drawn) | inactive: -0.0278 | inactive: -0.86 | inactive: -0.737
14 | CCCCCCCCCCCCOc1ccc(NC(=N)N)cc1NC(=N)N | inactive: 2.08 | inactive: -0.395 | inactive: 0.549
15 | CCCC(=O)Nc1ccc(OCC(O)CNCCc2ccc(OC)c(OC)c2)c(-c2ccno2)c1 (stereo not drawn) [Ecastolol] | inactive: -0.348 | inactive: -1.12 | inactive: -1.41
16 | CCOc1ccc(N2C(=O)c3cccnc3NC2=C(C)N(Cc2cccnc2)C(=O)Cc2ccc(OC(F)(F)F)cc2)cc1 | inactive: 1.42 | inactive: -1.22 | inactive: -2.01
17 | CCOC(=O)C1=Cc2cc(Cl)cc(Cl)c2OC1C(F)(F)F (stereo not drawn) | inactive: -0.921 | inactive: -0.732 | inactive: -0.806
18 | CCCC(=O)c1ccccc1OCCN(C(C)C)C(C)C [ketocaine] | inactive: 0.768 | inactive: -0.91 | inactive: 0.343
19 | O=C(Cn1cnnn1)N[C@@H]1C(=O)N2C(C(=O)O)=C(CSc3nncs3)CS[C@H]12 | inactive: -0.262 | inactive: -1.18 | inactive: 1.91
20 | CCC(C)C(C#N)(CCN1CCCCC1)c1ccccc1 (stereo not drawn) | inactive: 1.97 | inactive: 1.2 | inactive: -0.581
21 | O=c1cc(C2Oc3cc(O)cc(O)c3CC2O)cc2c(C3Oc4cc(O)cc(O)c4CC3O)cc(O)c(O)c2c1O (stereo not drawn) [Theaflavin] | inactive: 0.352 | inactive: -1.4 | inactive: -0.627
22 | C(=C\c1ccccc1)/CN1CCN(C(c2ccccc2)c2ccccc2)CC1 [Cinnarizine] | inactive: -0.615 | inactive: -0.142 | inactive: 1.04
23 | O=C(NCc1ccc(C(=O)O)cc1)NC[C@H]1CN(Cc2ccc(Cl)c(Cl)c2)CCO1 | inactive: 0.987 | inactive: -0.871 | inactive: -0.587
24 | C#CC1(O)CCC2C3CCc4cc(OC5CCCC5)ccc4C3CCC21C (stereo not drawn) [quinestrol] | inactive: -1.48 | inactive: -1.13 | inactive: 1.59
25 | Cc1cc2c(-c3ccccc3F)nc(N3CCNCC3)nc2s1 | inactive: -0.125 | inactive: 1.33 | inactive: 0.292
26 | CC(CN1c2ccccc2Sc2ccccc21)[N+](C)(C)C (stereo not drawn) [thiazinamium chloride] | inactive: -1.51 | inactive: 2.34 | inactive: 0.603
27 | Cn1nnnc1SCC1=C(C(=O)O)N2C(=O)[C@@H](NC(=O)[C@H](OC=O)c3ccccc3)[C@H]2SC1 [Cefamandole nafate] | inactive: -0.667 | inactive: -0.464 | active: 7.44

Row | Structure (SMILES) | TEAD-luciferase reporter activity (compound concentration: 200 nM) | TEAD-luciferase reporter activity (compound concentration: 2 uM) | TEAD-luciferase reporter activity (compound concentration: 10 uM)
28 | O=C(O)c1ccc(S(=O)(=O)N(Cl)Cl)cc1 | inactive: -2.15 | inactive: -0.882 | inactive: -0.643
29 | O=C(O)c1ccc(SSc2ccc(C(=O)O)cn2)nc1 | inactive: -1.35 | inactive: -1.09 | inactive: 2.23
30 | CCOc1ccc(C(=O)Nc2ccccc2OC(=O)c2ccc(OCC)cc2)cc1 | inactive: -1.03 | inactive: -0.16 | inactive: 1.47
31 | CC(C)(CCCCOc1ccc(OCCCCCn2ccnc2)cc1)C(=O)O | inactive: -1.44 | inactive: 0.592 | inactive: 0.89
32 | CCC(=O)O[C@]1(C(=O)CCl)[C@@H](C)C[C@H]2[C@@H]3C[C@H](F)C4=CC(=O)C=C[C@]4(C)[C@@]3(F)[C@@H](O)C[C@@]21C [Halobetasol propionate] | inactive: 0.0328 | inactive: 0.0683 | inactive: 0.245
33 | CC(C)(C)c1cc(-c2nnc(S)s2)cc(C(C)(C)C)c1O | inactive: -0.179 | inactive: -1.15 | inactive: -0.466
34 | NC(=O)N/N=C1\C=Cc2ccccc2C1=O | inactive: -1.41 | inactive: -1.57 | inactive: 1.28
35 | CCN(CC)CCNC(=O)N(CCS(=O)(=O)c1ccccc1)C(C)C [suricainide] | inactive: 0.0882 | inactive: 1.5 | inactive: -0.737
36 | C/C(=N\OCc1sc(-c2ccc(C(F)(F)F)cc2)nc1C)c1ccc(OCC(=O)O)c(C)c1 | inactive: -1.49 | inactive: -0.474 | inactive: 1.58
37 | C[C@H](NC(=O)C(=O)Nc1ccccc1C(C)(C)C)C(=O)N[C@@H](CC(=O)O)C(=O)COc1c(F)c(F)cc(F)c1F [emricasan] | inactive: -1.74 | inactive: 0.0546 | inactive: -0.897
38 | c1ccc2c(c1)OC[C@H](CNCCCOc1ccc3c(c1)OCO3)O2 | inactive: -0.194 | inactive: -1.8 | inactive: 0.866
39 | O=C(O)CCCn1nc(-c2c(-c3ccccc3)nn3ccccc23)ccc1=O | inactive: -0.838 | inactive: 0.0716 | inactive: -0.942
40 | CNS(=O)(=O)c1cc(OC)c(OC)c(C(=O)NC[C@@H]2CCCCN2C)c1 | inactive: -0.487 | inactive: 1.15 | inactive: -0.197
41 | O=C1c2ccccc2S(=O)(=O)c2cc(-c3nnn[nH]3)ccc21 [Doxantrazole] | inactive: -1.48 | inactive: 0.178 | inactive: 0.878
42 | O=C(Nc1c(Cl)cncc1Cl)c1ccc(OC(F)F)c(OCC2CC2)c1 [roflumilast] | inactive: -3.52 | inactive: -1.43 | inactive: -0.172
43 | CC(C)NC(=O)C1CCCN(c2nc3ncccc3o2)C1 (stereo not drawn) | inactive: 0.283 | – | inactive: 4.35
44 | CCCCCCCCCCCCOC(=O)c1cc(O)c(O)c(O)c1 | inactive: -0.18 | inactive: -0.0805 | inactive: 2.44
45 | Oc1cc2c(cc1O)C(c1ccccc1)CNCC2 (stereo not drawn) | inactive: 0.69 | inactive: -1.82 | inactive: 2.21
46 | C=C1N(C)C(=O)OC12CCN(CCC=C(c1ccc(F)cc1)c1ccc(F)cc1)CC2 | inactive: 0.41 | inactive: -1.19 | inactive: 1.6
47 | COc1ccc([C@]2(O)CC[C@H](N3CC[C@@H](NC(=O)CNC(=O)c4cccc(C(F)(F)F)c4)C3)CC2)cn1 | inactive: 0.887 | inactive: -0.836 | inactive: -0.56
48 | CCCOc1ccc(CNc2ncnc3nc[nH]c23)cc1OC | inactive: -0.444 | inactive: 0.24 | inactive: -0.511
49 | Cc1c(F)c(N)c2c(=O)cc(-c3ccc(N)c(F)c3)oc2c1F | inactive: -1.78 | inactive: -1.63 | inactive: -1.83
50 | CC(C)[C@@H](NC(=O)[C@@H]1CC[C@@H](O)C1)C(=O)N1CC[C@](O)(c2ccc(Cl)cc2)C(C)(C)C1 | inactive: -0.526 | inactive: 1.66 | inactive: 0.704
51 | Cc1c(S(=O)(=O)O)oc2c1C(=O)C(=O)c1c-2ccc2c1CCCC2(C)C [Sodium tanshi II-A sulfonate] | inactive: -1.49 | – | –
52 | Cc1c(S(=O)(=O)O)oc2c1C(=O)C(=O)c1c-2ccc2c1CCCC2(C)C [Sodium tanshi   II-A sulfonate] | – | – | inactive: 1.75
53 | Cc1c(S(=O)(=O)O)oc2c1C(=O)C(=O)c1c-2ccc2c1CCCC2(C)C [Sodium tanshi    II-A sulfonate] | – | inactive: -1.02 | –

Complete entries, quoted from the list.
CNS(=O)(=O)c1cc(OC)c(OC)c(C(=O)NC[C@@H]2CCCCN2C)c1 in the list: TEAD-luciferase reporter activity (compound concentration: 200 nM): inactive: -0.487; TEAD-luciferase reporter activity (compound concentration: 2 uM): inactive: 1.15; TEAD-luciferase reporter activity (compound concentration: 10 uM): inactive: -0.197
COc1ccc([C@]2(O)CC[C@H](N3CC[C@@H](NC(=O)CNC(=O)c4cccc(C(F)(F)F)c4)C3)CC2)cn1 in the list: TEAD-luciferase reporter activity (compound concentration: 200 nM): inactive: 0.887; TEAD-luciferase reporter activity (compound concentration: 2 uM): inactive: -0.836; TEAD-luciferase reporter activity (compound concentration: 10 uM): inactive: -0.56
